According to patent publication US20170260284A1 (NATIONAL CANCER CENTER, published 2017):
These are yes or no findings as the source states them, for the method shown. Some results given as binding are weak or reduced against the parent protein; the word gives no strength.

Assays:
[1] = target: T1, TMEM-180 protein in cancer cell culture supernatant or human plasma (human) (UniProt Q14CX5); experiment: direct ELISA, culture supernatant immobilized, IgM 98 at 10 ug/mL
T1 sequence: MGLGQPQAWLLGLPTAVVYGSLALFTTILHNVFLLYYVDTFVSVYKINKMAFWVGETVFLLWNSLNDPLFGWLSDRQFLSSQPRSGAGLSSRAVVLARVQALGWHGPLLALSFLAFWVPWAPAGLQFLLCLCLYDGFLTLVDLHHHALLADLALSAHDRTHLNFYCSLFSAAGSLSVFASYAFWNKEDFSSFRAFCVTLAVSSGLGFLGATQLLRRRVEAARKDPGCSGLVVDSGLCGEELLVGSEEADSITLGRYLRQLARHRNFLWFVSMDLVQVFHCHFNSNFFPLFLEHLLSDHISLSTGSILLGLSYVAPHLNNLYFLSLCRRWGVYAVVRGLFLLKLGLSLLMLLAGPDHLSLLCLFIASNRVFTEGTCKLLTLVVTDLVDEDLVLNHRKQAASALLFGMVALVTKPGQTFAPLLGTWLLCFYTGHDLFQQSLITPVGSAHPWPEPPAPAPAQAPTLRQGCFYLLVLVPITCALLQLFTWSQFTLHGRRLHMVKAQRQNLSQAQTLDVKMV

[2] = target: T1, TMEM-180 protein in cancer cell culture supernatant or human plasma (human); experiment: direct ELISA, diluted human plasma immobilized, IgM 98 at 10 ug/mL

binding [1]: binds
binding [2]: binds
B1: rat IgM antibody clone 98 (anti-TMEM-180 antibody clone 98) (antibody, V domains shown)
VH: QVQLKESGPGLVQPSQTLSLTCTVSGFSLTRYNVHWVRQPTGKGLEWMGVIWTGGSTDYNSALKSRLSISRDTSKSQVFLKMNSLQTEDIATYYCARDLGYWGQGVMVTVSS
VL: DIVMTQTPLSLSVAIGQSASISCKSSQSLKYRDGKTYLNWVFQSPGQSPKRLIYQVSKLDSGVPDRFSGTGSETDFTLKISRVEAEDLGVYYCCQGSYSPHTFGAGTKLELK
notes: Rat IgM from hybridoma, used as culture supernatant; also called IgM 98; Anti-TMEM-180 IgM rat antibody (clone 98)
